The record followed here is PubChem BioAssay AID2685 (National Center for Advancing Translational Sciences (NCATS), 2010).

A short description of the experiment: qHTS Assay for Lipid Storage Modulators in Drosophila S3 Cells.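 As to cell number change: cells counted by Cell Tracker Red CMTPX staining in the red channel.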 The conditions noted are these: BODIPY lipid droplet fluorescence, 18-24 h; for cell number change: measured here: cell count max response, cells fed with added oleic acid. In outline: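 Drosophila S3 cells loaded with oleic acid (400 uM, as added) and compounds at several concentrations; lipid droplets imaged by 488-nm laser-scanning cytometry, 500–530 nm intensity and object ratio to cell channel. Percent activity normalized to 20 uM Triacsin C.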
Background: In qHTS, concentration-response curves come from the screen itself.

Setting [1] is: measured here: lipid fluorescence (Fed channel) AC50, cells fed with added oleic acid.
Where [2] appears, read: measured here: cell number channel AC50, cells fed with added oleic acid.

Some of the results follow. The main result of the screen is listed elsewhere. These columns were measured beside it and carry no call. Compounds called inactive in the main read-out are mostly missing here. Potencies come from curve fits of mixed quality, noted in brackets.

With `CCN(CC)S(=O)(=O)c1ccc(Cl)c(C(=O)NC)c1`, the cell number change came out at 3.92%.
Consider `Cn1nc(C(=O)NCc2cccs2)c2ccccc2c1=O`, for which the cell number change was 13.3%. Besides, the AC50 (usually the concentration giving half of the maximal activity seen) under setting [1] was 5.8 µM [rising, partial curve].
Consider `O=C(Nc1ccc([N+](=O)[O-])cc1)Nc1ccc(OC(F)F)c(Cl)c1`, for which the cell number change was -79%. Also, the concentration at half-maximal activity (AC50) under setting [2] was 6.51 µM [falling, full curve]. For the same compound, the AC50 under setting [1] is 6.51 µM [falling, full curve].
As to `Cc1c(NC(=O)C(C)Sc2ccc3ccccc3n2)c(=O)n(-c2ccccc2)n1C` (centres undefined), the cell number change is 12.1%.
Still for that read-out and setting: next, `COc1ccc(CNC(=O)NCc2ccc(OC)c(OC)c2)cc1OC`: -6.9%; `CC(=O)NC(CC(=O)OCC(=O)c1c(N)n(C)c(=O)n(C)c1=O)c1ccccc1` (centres undefined): -13.3%.
For the compound `O=C1c2cccc3cccc(c23)C(=O)N1c1ccc(O)cc1`, the cell number change is -14.3%. Further, the concentration at half-maximal activity (AC50) under setting [1] was 2.91 µM [falling, full curve].
For the compound `O=C(Nc1ccc(F)cc1)Nc1sccc1-c1nc2ccccc2s1`, the cell number change was -19.1%. Moreover, the concentration at half-maximal activity (AC50) under setting [1] was 29.1 µM [falling, single point].
For `CSc1ccc(C2Nc3cccc4cccc(c34)N2)cc1`, the cell number change was -42.7%. Also, the half-maximal activity concentration (AC50) under setting [2] was 8.2 µM [falling, partial curve, poor fit]. Under setting [1], the AC50 is 1.16 µM [falling, full curve].
Consider `CCOc1ccc(NC(=O)CN(C)C(=O)c2ccc(N3CCCC3)c([N+](=O)[O-])c2)cc1OCC`, for which the AC50 under setting [2] was 1.3 µM [rising, single point].
Regarding `Cc1nc(NC(=O)c2ccccc2)sc1-c1csc(NCCc2ccccc2)n1`, the half-maximal activity concentration (AC50) by setting is: under setting [2], 0.461 µM [rising, partial curve, poor fit]; under setting [1], 0.517 µM [rising, full curve].
Consider `Cc1ccc(C)c(C(=O)COC(=O)C2CCN(c3ccc(C(F)(F)F)cn3)CC2)c1`, for which the cell number change is 17.3%.
For `COCCSc1nnc(NC(=O)c2ccc3c(c2)OCO3)s1`, the cell number change stood at 19.5%. The AC50 under setting [1] was 13 µM [rising, partial curve, poor fit].
For the compound `CCOc1ccc(S(=O)(=O)NCCCN2CCCC2=O)cc1`, the cell number change amounted to 39%. In addition, the concentration at half-maximal activity (AC50) under setting [2] was 6.51 µM [rising, partial curve]. Moreover, the AC50 under setting [1] was 8.2 µM [rising, partial curve].
As to `CCOc1ccc(S(=O)(=O)Nc2ccc(S(=O)(=O)Nc3cc(OC)ccc3OC)cc2)cc1`, under setting [2], the half-maximal activity concentration (AC50) is 1.3 µM [rising, partial curve].
As to `COc1cc2c(cc1OC)CN(C(=O)CCNS(=O)(=O)c1ccccc1F)CC2`, the cell number change was determined as 1.74%. The AC50 under setting [2] was 0.058 µM [rising, full curve, poor fit].
Regarding `CCOc1ccc(NC(=O)Nc2ccc(Br)cn2)cc1`, the cell number change amounted to 6.91%. Also, the AC50 under setting [1] is 0.13 µM [rising, full curve, poor fit].
For `Cc1n[nH]c(=S)n(NC(=O)CC(=O)Nn2c(=S)[nH]nc(C)c2=O)c1=O`, the cell number change was -13.4%. Under setting [2], the AC50 is 6.51 µM [rising, single point]. Further, the concentration at half-maximal activity (AC50) under setting [1] is 4.11 µM [rising, partial curve, poor fit].
Take `CCOc1ccc(-c2n[nH]c(=S)n2/N=C/c2cc3c(cc2[N+](=O)[O-])OCO3)cc1`: the cell number change turned out to be 11.2%. Further, the AC50 under setting [1] was 1.84 µM [rising, full curve].
On to `COc1cccc(CNC(=O)c2cc(S(=O)(=O)N3CCCCC3)c[nH]2)c1`, for which the cell number change turned out to be 12.3%.
`Cc1ccccc1C(=O)Nc1cc(S(=O)(=O)N2CCOCC2)ccc1N1CCN(C)CC1`: the cell number change was -0.519%. Also, the AC50 under setting [1] was 29.1 µM [falling, single point].
As for `CCOc1ccc2[nH]cc(S(=O)(=O)c3ccc(Cl)cc3)c(=O)c2c1`, the cell number change is -1.9%.
`CCCN(C(=O)c1ccc(N2CCCC2=O)cc1)C1CCS(=O)(=O)C1` (centres undefined): the cell number change stood at 5.78%. Moreover, the AC50 under setting [1] is 0.146 µM [rising, partial curve, poor fit].
For the compound `CCC(C)[C@H](NC(=O)c1cc2cc(Cl)ccc2n1C)C(=O)N1CCC[C@H]1C(=O)O` (some centres undefined), the cell number change came out at 17.8%. Moreover, under setting [2], the AC50 is 0.326 µM [rising, full curve, poor fit]. For the same compound, the AC50 under setting [1] was 29.1 µM [rising, single point].
As for `COc1cc([N+](=O)[O-])ccc1NC(=S)Nn1cnnc1`, the cell number change was 22.9%. Under setting [1], the AC50 was 5.8 µM [rising, partial curve, poor fit].
For `CSCCC(NC(N)=O)C(=O)N(C)CC(=O)Nc1ccc(C)cc1` (centres undefined), the cell number change was found to be 8.19%.
Take `Cc1cccc(NC(=O)COC(=O)c2ccc(S(=O)(=O)N3CCCCCC3)cc2)c1`: the cell number change is -40.9%. Besides, the concentration at half-maximal activity (AC50) under setting [2] was 29.1 µM [falling, single point]. In addition, the AC50 under setting [1] was 0.146 µM [falling, full curve, poor fit].
Take `Cc1sc(NC(=O)c2cc(-c3ccc(Cl)cc3)nc3ccccc23)c(C(N)=O)c1C`: the cell number change turned out to be 17.2%. Further, under setting [1], the AC50 was 16.4 µM [falling, single point].
In the case of `COC(=O)COc1ccc(C(C2C(=O)CC(C)(C)CC2=O)C2C(=O)CC(C)(C)CC2=O)cc1`, under setting [2], the half-maximal activity concentration (AC50) was 6.51 µM [falling, single point].
On to `COc1cc(/C=C2/C(=N)N3N=C(CC(=O)N4CCOCC4)SC3=NC2=O)ccc1OCc1ccccc1F`, for which the cell number change turned out to be 1.18%.
For `CC1(C(=O)N2CCN(Cc3ccccc3Cl)CC2)CC1(Cl)Cl` (centres undefined), the cell number change was -20.4%. Further, the half-maximal activity concentration (AC50) under setting [1] was 0.103 µM [falling, full curve, poor fit].
As to `CCCCNC(=O)c1cc2c(-c3ccc(Cl)cc3)nn(C)c2s1`, the AC50 under setting [1] was 4.11 µM [rising, partial curve].
Take `Cc1cnc(NC(=O)CSc2nnc(-c3ccc(Cl)cc3Cl)n2N)s1`: the cell number change was found to be 54.4%. In addition, the AC50 under setting [2] is 25.9 µM [rising, single point].
Turning to `OCC1(Cc2ccc(Cl)cc2)CCN(Cc2ccccc2F)CC1`, the cell number change is -12.1%. Further, the half-maximal activity concentration (AC50) under setting [1] was 0.259 µM [falling, full curve].
Regarding `COc1ccc(C(=O)c2sc3nc(-c4ccc(OC)cc4)ccc3c2N)cc1`, the cell number change is -22.5%. The AC50 under setting [1] was 29.1 µM [falling, single point].
Regarding `CC(C)(C)OC(=O)N1CCN(CCNC(=O)c2ccccc2)CC1`, the cell number change was -13.9%. Also, the half-maximal activity concentration (AC50) under setting [1] is 0.58 µM [rising, single point].
On to `Cc1ccc(S(=O)(=O)NC(=O)NN2CC3CCCC3C2)cc1` (centres undefined), for which the cell number change was -18.1%. Further, under setting [2], the concentration at half-maximal activity (AC50) is 0.00461 µM [falling, full curve, poor fit]. The half-maximal activity concentration (AC50) under setting [1] is 14.6 µM [falling, partial curve, poor fit].
For the compound `C/C(=N/NC(=O)CNC(=O)c1cccnc1)c1ccc(Cl)c(Cl)c1`, the cell number change amounted to 3.41%. In addition, the concentration at half-maximal activity (AC50) under setting [1] was 1.84 µM [rising, partial curve, poor fit].
As for `O=C(O)[C@H]1CCCN1C(=O)c1ccccc1N1C(=O)[C@@H]2Cc3c([nH]c4ccccc34)C(c3cccc(Cl)c3)N2C1=O` (some centres undefined), the cell number change turned out to be 8.32%. For the same compound, the half-maximal activity concentration (AC50) under setting [1] is 29.1 µM [rising, single point].
`O=C(CCCCCn1c(=O)[nH]c2ccccc2c1=O)N1CCN(Cc2ccc3c(c2)OCO3)CC1`: the cell number change was determined as 9.11%. The half-maximal activity concentration (AC50) under setting [2] was 1.16 µM [rising, full curve]. The AC50 under setting [1] is 2.59 µM [falling, full curve].
For `C/C(=N/Nc1nc(-c2ccccc2F)nc2ccccc12)c1ccccc1O`, the cell number change was found to be 12.2%. The AC50 under setting [2] was 0.116 µM [rising, full curve, poor fit]. Further, the concentration at half-maximal activity (AC50) under setting [1] was 0.13 µM [rising, full curve, poor fit].
Regarding `Cc1cc(C)nc(N2CCCC(C(=O)Nc3cccc(Cl)c3)C2)n1` (centres undefined), the cell number change amounted to 20.6%.
Regarding `CCn1cc(C(=O)Nc2cccc(NC(C)=O)c2)c2cc(OC)c(OC)cc2c1=O`, the cell number change was -37.7%. Further, under setting [2], the AC50 is 29.1 µM [falling, single point]. In addition, the AC50 under setting [1] is 29.1 µM [falling, single point].
For the compound `O=C(CNC(=O)c1ccc(Br)cc1)c1ccc(Br)cc1`, the cell number change worked out at 3.41%. Moreover, the half-maximal activity concentration (AC50) under setting [1] is 29.1 µM [rising, single point].
`Cc1[nH]c2ccccc2c1C(=O)/C=C/c1ccccc1`: the cell number change was -12.4%.
On to `O=C(CSc1n[nH]c(-c2ccccc2)n1)Nc1ccc(Br)cn1`, for which the cell number change was -47.7%. The concentration at half-maximal activity (AC50) under setting [2] is 13 µM [falling, single point]. Moreover, the AC50 under setting [1] is 14.6 µM [falling, partial curve].
`CC1(C)Cc2c(c(N3CCOCC3)nc3sc4c(NCc5ccco5)nnnc4c23)CS1`: the cell number change was -24.4%. Under setting [1], the half-maximal activity concentration (AC50) is 0.411 µM [rising, single point].
Regarding `CCc1nnc(NC(=O)Nc2ccc(OC)cc2)s1`, the cell number change is -11.7%. Moreover, the AC50 under setting [2] is 0.411 µM [falling, full curve, poor fit]. Further, the AC50 under setting [1] was 0.116 µM [falling, full curve].
Take `Cc1nc(S/C(C(=O)O)=C2/C(=O)Nc3ccccc32)n[nH]1`: the cell number change was 51.9%. Also, the AC50 under setting [2] is 29.1 µM [rising, single point].
`S=c1nc2c(n[nH]1)c1ccccc1n2CCc1ccccc1`: the cell number change was -17.8%. Under setting [1], the concentration at half-maximal activity (AC50) was 16.4 µM [falling, single point].
Regarding `CC(C)(C)c1cc(C(=O)NNc2cccc(Cl)c2)n(Cc2ccccc2)n1`, the cell number change was -38.9%. Moreover, the concentration at half-maximal activity (AC50) under setting [2] is 32.6 µM [falling, single point]. For the same compound, the half-maximal activity concentration (AC50) under setting [1] was 25.9 µM [falling, partial curve, poor fit].
Turning to `Cc1cccc(C)c1NC1=NC2(CCCCC2)N=C(N)N1`, the cell number change is -10.5%. Further, the half-maximal activity concentration (AC50) under setting [2] was 0.13 µM [falling, full curve, poor fit].
As to `CC(=O)NCCCc1nc2ccccc2n1Cc1ccccc1F`, the cell number change came out at 13.3%.
Consider `CCOC(=O)c1ccc(Oc2cc(C)nc(SC)n2)cc1`, for which the cell number change stood at 45.4%. In addition, the half-maximal activity concentration (AC50) under setting [2] is 29.1 µM [rising, single point]. Also, the concentration at half-maximal activity (AC50) under setting [1] is 29.1 µM [rising, single point].
`CCNc1c([N+](=O)[O-])c(=O)n(CC)c2ccccc12`: the cell number change was determined as 23.8%. For the same compound, the half-maximal activity concentration (AC50) under setting [1] was 29.1 µM [rising, single point].
In the case of `CC(C)(C)C(=O)C1=C(O)C(=O)N(Cc2ccccc2)C1c1ccccc1Cl` (centres undefined), the cell number change was 1.82%.
For the compound `CS(=O)(=O)N(CC(=O)O)c1ccc2c(c1)OCO2`, the cell number change was -33.8%. Further, the AC50 under setting [2] is 0.206 µM [falling, full curve]. Moreover, the concentration at half-maximal activity (AC50) under setting [1] was 1.3 µM [falling, full curve].
Take `Cc1cc(C)c(C(=O)C(C)OC(=O)Cn2cnc3c2c(=O)n(C)c(=O)n3C)cc1C` (centres undefined): the cell number change was -99.2%. The AC50 under setting [2] was 29.1 µM [falling, partial curve, poor fit].
